Our source for the cell number change and AC50 values is PubChem BioAssay AID2685 (National Center for Advancing Translational Sciences (NCATS), 2010).

This test is described as follows: qHTS Assay for Lipid Storage Modulators in Drosophila S3 Cells.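 As to cell number change: cells counted by Cell Tracker Red CMTPX staining in the red channel.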 The following applies: BODIPY lipid droplet fluorescence, 18-24 h; for cell number change: measured here: cell count max response, cells fed with added oleic acid. An outline of the steps: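 Drosophila S3 cells got compounds at several concentrations plus oleic acid (400 uM solution). Laser-scanning cytometry with 488 nm excitation read lipid droplets at 500-530 nm and cells at 575-640 nm. Percent activity was relative to 20 uM Triacsin C.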
On the technique in general: qHTS replaces the single test concentration by a dilution series.

The mark [1] stands for this setting: measured here: lipid fluorescence (Fed channel) AC50, cells fed with added oleic acid.
The mark [2] stands for this setting: measured here: cell number channel AC50, cells fed with added oleic acid.

Molecules are shown by their SMILES. The list shows a part of the results. The main result of the screen is listed elsewhere. These columns were measured beside it and carry no call. Most of these compounds were active or inconclusive in the main read-out, so they are no random draw. Potencies come from curve fits of mixed quality, noted in brackets.

In the case of `Cc1cc(N2CCCN(C)CC2)nc2cc(Cl)ccc12`, the cell number change was -20.1%. Besides, the AC50 (usually the midpoint of the concentration-response curve, whichever way the signal moves) under setting [1] is 29.1 µM [rising, single point].
Turning to `c1ccc(C(c2ccccc2)c2nc(-c3cccnc3)no2)cc1`, the cell number change was -10.6%. The AC50 under setting [1] is 2.06 µM [falling, partial curve].
On to `NC(=O)CC(NC(=O)Cc1ccc(Cl)cc1)c1ccc(NC2CCCCCC2)c([N+](=O)[O-])c1` (stereo not drawn), for which the cell number change is -19.2%. Also, the AC50 under setting [1] is 9.2 µM [falling, single point].
For `CCOC(=O)c1c(NC(=O)C(C)Sc2nnc(C)c(=O)[nH]2)sc2c1CCCC2` (stereo not drawn), the AC50 under setting [2] is 2.59 µM [rising, single point].
As to `COc1nccnc1NS(=O)(=O)c1ccc(N/C=C2\CCCCC2=O)cc1`, the cell number change is -21.3%. Also, the AC50 under setting [2] was 0.058 µM [falling, full curve]. In addition, under setting [1], the AC50 was 0.0164 µM [falling, full curve, poor fit].
In the case of `CCOC(=O)/C(=N/O)C1=NC(C)(C)Cc2cc(C)c(C)cc21`, the cell number change came to 17.2%. Also, under setting [1], the AC50 was 25.9 µM [rising, single point].
`Cc1ccccc1NC(=O)CNC(=O)c1ccc(C(F)(F)F)cc1`: the cell number change is -2.08%. The AC50 under setting [1] is 29.1 µM [rising, single point].
Regarding `Cc1cccc(NC(=O)CN(CC2CCCO2)C(=O)c2oc3ccc(F)cc3c2C)c1C` (stereo not drawn), the cell number change is -3.85%. Also, the AC50 under setting [1] is 4.11 µM [falling, full curve].
For `CCCS(=O)(=O)N1CCn2c(nc3ccccc32)C1`, the cell number change was -0.468%.
Regarding `O=C(Nc1nc(=O)c2ccccc2s1)c1ccc(F)cc1`, the cell number change was -34.9%. Also, under setting [2], the AC50 is 13 µM [falling, partial curve]. Further, the AC50 under setting [1] is 23.1 µM [falling, partial curve].
Turning to `CS(=O)(=O)N(CC(=O)Nc1ccc(S(=O)(=O)N2CCCC2)cc1)c1cccc(F)c1`, the cell number change is -24.7%. For the same molecule, under setting [1], the AC50 is 14.6 µM [falling, partial curve, poor fit].
In the case of `CCCC1(c2ccccc2)NC(=O)N(CC(=O)Nc2sc(-c3ccccc3)cc2C(=O)OCC)C1=O` (stereo not drawn), the AC50 under setting [1] was 29.1 µM [falling, single point].
For the molecule `CSCC[C@H](NC(=O)[C@@H]1Cc2ccccc2CN1)C(=O)Nc1ccc2c(c1)OCO2`, the cell number change came out at 1.98%.
As for `COC(=O)c1c(N)sc2c1CCN(c1ncc(C(F)(F)F)cc1Cl)C2`, the cell number change is -59.3%. For the same molecule, the AC50 under setting [2] is 29.1 µM [falling, single point].
For the molecule `CC(=O)N1CCc2cc(S(=O)(=O)NCCN3CCC(C)CC3)ccc21`, the cell number change is -21.9%. For the same molecule, the AC50 under setting [2] is 0.184 µM [falling, full curve, poor fit]. Also, the AC50 under setting [1] was 0.0058 µM [falling, full curve, poor fit].
Take `O=C(COc1ccc2ccccc2c1)Nc1cccc2c1C(=O)NC2=O`: the cell number change is 37.3%. Besides, the AC50 under setting [2] was 23.1 µM [rising, single point]. Under setting [1], the AC50 was 29.1 µM [rising, single point].
Take `Oc1cccc(/C=N/Nc2ccc(Cl)nn2)c1O`: the cell number change was 116%. Under setting [2], the concentration at half-maximal activity (AC50) is 29.1 µM [rising, partial curve, poor fit]. Moreover, the half-maximal activity concentration (AC50) under setting [1] is 10.3 µM [rising, partial curve].
For the molecule `Cc1ccc2[nH]c(=O)c(CN(CC3CCCO3)C(=O)c3ccncc3)cc2c1` (stereo not drawn), the cell number change was 145%. The AC50 under setting [2] is 20.6 µM [rising, partial curve]. Under setting [1], the AC50 is 6.51 µM [rising, single point].
Take `Cc1cc(OCC(=O)N2CCN(c3ccccn3)CC2)c(C)cc1Br`: the cell number change turned out to be 6.45%. Moreover, the AC50 under setting [1] was 1.46 µM [rising, partial curve].
Consider `CN(C(=O)COC(=O)/C=C/c1ccc(Cl)c(Cl)c1)c1c(N)n(Cc2ccccc2)c(=O)[nH]c1=O`, for which the cell number change came out at 5.39%. For the same molecule, the AC50 under setting [2] is 0.731 µM [falling, single point].
Consider `O=C(C(=O)N1CCCC1CO)N1CCCC1CO` (stereo not drawn), for which the cell number change is -6.32%.
`CC(C)C(NC(=O)c1ccc(Cl)cc1)C(=O)NCC1CCCO1` (stereo not drawn): the cell number change was 20.6%. In addition, under setting [2], the AC50 is 1.64 µM [rising, partial curve, poor fit].
As for `COc1ccccc1CNC(=O)Cn1cnnn1`, the cell number change amounted to 23.4%. Moreover, the AC50 under setting [1] is 1.16 µM [falling, partial curve].
Take `O=C(NCCC1CCCCN1S(=O)(=O)c1ccccc1)C(=O)NCC1CCCO1` (stereo not drawn): the AC50 under setting [1] was 6.51 µM [falling, single point].
With `COc1ccc(N(C(=O)c2ccncc2)S(=O)(=O)c2cccs2)cc1`, the cell number change amounted to 0.966%.
On to `COc1ccc(CN2CC(C(=O)N3CCOCC3)CC2=O)cc1` (stereo not drawn), for which the cell number change was -23.6%. Moreover, the AC50 under setting [2] is 0.651 µM [falling, full curve, poor fit]. The AC50 under setting [1] was 5.8 µM [falling, full curve].
Take `COC(=O)c1[nH]c2ccc(F)cc2c1NS(=O)(=O)c1ccc(F)c(C)c1`: the cell number change came to 4.28%. For the same molecule, under setting [1], the AC50 was 16.4 µM [rising, partial curve].
On to `Cc1ccc(C(CNS(=O)(=O)c2ccc(Br)cc2)N2CCN(C)CC2)cc1` (stereo not drawn), for which the cell number change is -15.7%. The AC50 under setting [2] is 3.26 µM [falling, single point]. The half-maximal activity concentration (AC50) under setting [1] is 5.8 µM [falling, full curve, poor fit].
For `O=C(CCNC(=O)c1ccc([N+](=O)[O-])cc1)N/N=C/c1ccc(F)cc1`, the cell number change is -53%.
On the same count and under the same terms, the value for `Cc1cc(C)c(S(=O)(=O)c2ccc(F)cc2C)c(=O)[nH]1` was -12.7%.
In the case of `CCc1cc(=O)oc2cc(OCC(=O)NCCCn3ccnc3)c(Cl)cc12`, the cell number change was -20%.
With `N=c1c2c3c(sc2nc2n1CCC2)CCCC3`, the cell number change is -9.35%.
For `O=C1C2ON(c3ccc(Br)cc3)C(c3cccnc3)C2C(=O)N1C1CCCCC1` (stereo not drawn), the AC50 by setting is: under setting [2], 0.461 µM [rising, full curve, poor fit]; under setting [1], 0.92 µM [rising, full curve, poor fit].
As for `CN1CCN(C(=O)CCn2nc(-c3ccccc3)c3ccccc3c2=O)CC1`, the cell number change worked out at 0.388%. Under setting [1], the AC50 was 25.9 µM [rising, single point].
Turning to `CSc1scc2c1-c1nc(SCC(=O)C(C)(C)C)ncc1CC2`, the cell number change is -52.8%. Under setting [2], the AC50 is 5.8 µM [falling, full curve].
As to `CCN1CCN(C(=O)CCN2C(=O)c3ccccc3C2=O)CC1`, the cell number change amounted to 13%.
In the case of `O=C(Cn1nc(C(=O)O)c2ccccc2c1=O)Nc1cccc(Br)c1`, the cell number change is 1.32%. In addition, the AC50 under setting [2] is 0.0058 µM [rising, full curve, poor fit]. The AC50 under setting [1] is 1 µM [falling, full curve].
For the molecule `CCCCSc1nc2sc3c(c2c(=O)n1-c1ccc(OC)cc1)CCN(C)C3`, the cell number change was -6.94%. For the same molecule, the AC50 under setting [1] was 11.6 µM [falling, partial curve, poor fit].
